Results are given in words; binding and its absence hold for the method and conditions named. In cells and extracts the contact can be indirect. Some binding calls cover weakened binding; strength is not graded here. For part of these data: Sequences can lack the tags named with a protein.

By UniProt entry, the sequences of proteins in these tests, tags left out.
UniProt P08151: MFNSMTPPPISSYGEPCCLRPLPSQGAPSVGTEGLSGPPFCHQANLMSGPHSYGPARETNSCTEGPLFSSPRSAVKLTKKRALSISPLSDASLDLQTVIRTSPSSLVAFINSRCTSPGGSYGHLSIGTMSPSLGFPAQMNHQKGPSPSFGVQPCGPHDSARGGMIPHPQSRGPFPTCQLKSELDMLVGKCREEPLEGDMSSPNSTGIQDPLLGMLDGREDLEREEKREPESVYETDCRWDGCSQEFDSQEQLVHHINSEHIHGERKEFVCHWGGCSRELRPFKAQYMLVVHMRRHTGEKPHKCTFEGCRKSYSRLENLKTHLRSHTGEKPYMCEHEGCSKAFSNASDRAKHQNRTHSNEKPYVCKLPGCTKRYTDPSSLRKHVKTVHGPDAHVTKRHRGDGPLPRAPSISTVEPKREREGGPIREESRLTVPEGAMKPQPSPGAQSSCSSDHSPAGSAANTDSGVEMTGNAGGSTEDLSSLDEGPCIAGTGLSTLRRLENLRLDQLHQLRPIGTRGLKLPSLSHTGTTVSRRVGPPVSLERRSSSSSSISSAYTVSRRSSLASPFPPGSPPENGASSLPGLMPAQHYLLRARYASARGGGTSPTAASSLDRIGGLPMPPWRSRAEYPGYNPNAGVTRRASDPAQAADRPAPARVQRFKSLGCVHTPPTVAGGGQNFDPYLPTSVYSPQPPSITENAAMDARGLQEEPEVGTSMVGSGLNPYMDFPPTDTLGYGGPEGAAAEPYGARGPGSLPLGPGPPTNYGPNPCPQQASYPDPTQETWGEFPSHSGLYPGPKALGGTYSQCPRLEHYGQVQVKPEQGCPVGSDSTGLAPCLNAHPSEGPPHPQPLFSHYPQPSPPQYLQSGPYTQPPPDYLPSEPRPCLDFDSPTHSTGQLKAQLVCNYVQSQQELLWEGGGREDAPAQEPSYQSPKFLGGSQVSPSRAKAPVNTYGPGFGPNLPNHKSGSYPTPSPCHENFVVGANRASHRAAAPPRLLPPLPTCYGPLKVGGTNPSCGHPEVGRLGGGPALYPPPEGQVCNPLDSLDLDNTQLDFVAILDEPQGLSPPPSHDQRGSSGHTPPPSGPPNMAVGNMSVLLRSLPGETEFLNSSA

Experiment [1] deals with T1, GST-WW45 fusion protein (UniProt Q9H4B6).
T1 sequence: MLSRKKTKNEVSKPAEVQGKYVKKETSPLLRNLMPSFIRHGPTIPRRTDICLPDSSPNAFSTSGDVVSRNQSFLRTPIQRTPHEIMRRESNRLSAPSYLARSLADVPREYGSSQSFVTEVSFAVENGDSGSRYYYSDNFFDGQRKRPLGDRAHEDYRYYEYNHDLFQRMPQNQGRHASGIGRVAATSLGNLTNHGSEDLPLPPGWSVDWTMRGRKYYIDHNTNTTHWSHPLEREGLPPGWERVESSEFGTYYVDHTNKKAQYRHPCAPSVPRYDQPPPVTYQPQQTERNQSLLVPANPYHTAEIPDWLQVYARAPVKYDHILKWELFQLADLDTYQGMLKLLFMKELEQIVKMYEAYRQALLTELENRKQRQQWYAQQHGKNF
Briefly: pull-down; 5 ug GST-WW45 with 800 ug A549 whole cell lysate (50mM Tris-Cl pH7.5, 150mM NaCl, 0.1% NP40), 4°C for 3 hours; captured on glutathione-Sepharose-4B beads; only the target purified.

Experiment [2] addresses HA-tagged Gli1 (expressed in A549 cells) (UniProt P08151). Briefly: co-IP; ectopically expressed Flag-WW45 and HA-Gli1 in A549 cells; which protein was precipitated is not told.
In experiment [3] the target is Gli1 (endogenous, A549 cells) (human (endogenous in A549)) (UniProt P08151). Briefly: co-IP; endogenous WW45 and Gli1 in A549 cells; which protein was precipitated is not told.

Regarding “Gli1 (endogenous, A549 cells) (from UniProt P08151 1-1106)”, the binding result in experiment [1] was “binds”.

B1: Flag tagged WW45 (protein, UniProt Q9H4B6 1-383)
chain: MLSRKKTKNEVSKPAEVQGKYVKKETSPLLRNLMPSFIRHGPTIPRRTDICLPDSSPNAFSTSGDVVSRNQSFLRTPIQRTPHEIMRRESNRLSAPSYLARSLADVPREYGSSQSFVTEVSFAVENGDSGSRYYYSDNFFDGQRKRPLGDRAHEDYRYYEYNHDLFQRMPQNQGRHASGIGRVAATSLGNLTNHGSEDLPLPPGWSVDWTMRGRKYYIDHNTNTTHWSHPLEREGLPPGWERVESSEFGTYYVDHTNKKAQYRHPCAPSVPRYDQPPPVTYQPQQTERNQSLLVPANPYHTAEIPDWLQVYARAPVKYDHILKWELFQLADLDTYQGMLKLLFMKELEQIVKMYEAYRQALLTELENRKQRQQWYAQQHGKNF
In the case of B1, the binding result in experiment [2] is “binds”.

B2: WW45 (endogenous, A549 cells) (protein, UniProt Q9H4B6 1-383)
chain: MLSRKKTKNEVSKPAEVQGKYVKKETSPLLRNLMPSFIRHGPTIPRRTDICLPDSSPNAFSTSGDVVSRNQSFLRTPIQRTPHEIMRRESNRLSAPSYLARSLADVPREYGSSQSFVTEVSFAVENGDSGSRYYYSDNFFDGQRKRPLGDRAHEDYRYYEYNHDLFQRMPQNQGRHASGIGRVAATSLGNLTNHGSEDLPLPPGWSVDWTMRGRKYYIDHNTNTTHWSHPLEREGLPPGWERVESSEFGTYYVDHTNKKAQYRHPCAPSVPRYDQPPPVTYQPQQTERNQSLLVPANPYHTAEIPDWLQVYARAPVKYDHILKWELFQLADLDTYQGMLKLLFMKELEQIVKMYEAYRQALLTELENRKQRQQWYAQQHGKNF
Turning to B2, the binding entry in experiment [3] is on record as “binds”.

The values are drawn from article PMC5356604.
